Results from the supplement of paper PMC10849652.
The other results are listed elsewhere or left out.

By UniProt entry, the sequences of proteins in these tests, tags left out. Where a name states a change or a piece, a line headed by the entry shows the natural chain unless it says otherwise.
UniProt Q6N075: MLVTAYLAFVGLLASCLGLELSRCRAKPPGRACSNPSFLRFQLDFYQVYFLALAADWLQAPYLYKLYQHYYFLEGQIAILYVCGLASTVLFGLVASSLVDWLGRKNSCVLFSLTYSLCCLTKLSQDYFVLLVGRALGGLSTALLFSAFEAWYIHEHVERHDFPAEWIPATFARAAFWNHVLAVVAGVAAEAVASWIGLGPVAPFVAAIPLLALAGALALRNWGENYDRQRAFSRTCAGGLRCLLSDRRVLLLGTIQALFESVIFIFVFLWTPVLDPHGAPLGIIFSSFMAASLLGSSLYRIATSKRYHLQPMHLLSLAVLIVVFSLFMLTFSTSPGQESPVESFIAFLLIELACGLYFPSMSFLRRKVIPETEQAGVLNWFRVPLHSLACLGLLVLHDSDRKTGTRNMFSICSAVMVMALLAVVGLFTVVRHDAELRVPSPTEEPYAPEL
UniProt Q14676: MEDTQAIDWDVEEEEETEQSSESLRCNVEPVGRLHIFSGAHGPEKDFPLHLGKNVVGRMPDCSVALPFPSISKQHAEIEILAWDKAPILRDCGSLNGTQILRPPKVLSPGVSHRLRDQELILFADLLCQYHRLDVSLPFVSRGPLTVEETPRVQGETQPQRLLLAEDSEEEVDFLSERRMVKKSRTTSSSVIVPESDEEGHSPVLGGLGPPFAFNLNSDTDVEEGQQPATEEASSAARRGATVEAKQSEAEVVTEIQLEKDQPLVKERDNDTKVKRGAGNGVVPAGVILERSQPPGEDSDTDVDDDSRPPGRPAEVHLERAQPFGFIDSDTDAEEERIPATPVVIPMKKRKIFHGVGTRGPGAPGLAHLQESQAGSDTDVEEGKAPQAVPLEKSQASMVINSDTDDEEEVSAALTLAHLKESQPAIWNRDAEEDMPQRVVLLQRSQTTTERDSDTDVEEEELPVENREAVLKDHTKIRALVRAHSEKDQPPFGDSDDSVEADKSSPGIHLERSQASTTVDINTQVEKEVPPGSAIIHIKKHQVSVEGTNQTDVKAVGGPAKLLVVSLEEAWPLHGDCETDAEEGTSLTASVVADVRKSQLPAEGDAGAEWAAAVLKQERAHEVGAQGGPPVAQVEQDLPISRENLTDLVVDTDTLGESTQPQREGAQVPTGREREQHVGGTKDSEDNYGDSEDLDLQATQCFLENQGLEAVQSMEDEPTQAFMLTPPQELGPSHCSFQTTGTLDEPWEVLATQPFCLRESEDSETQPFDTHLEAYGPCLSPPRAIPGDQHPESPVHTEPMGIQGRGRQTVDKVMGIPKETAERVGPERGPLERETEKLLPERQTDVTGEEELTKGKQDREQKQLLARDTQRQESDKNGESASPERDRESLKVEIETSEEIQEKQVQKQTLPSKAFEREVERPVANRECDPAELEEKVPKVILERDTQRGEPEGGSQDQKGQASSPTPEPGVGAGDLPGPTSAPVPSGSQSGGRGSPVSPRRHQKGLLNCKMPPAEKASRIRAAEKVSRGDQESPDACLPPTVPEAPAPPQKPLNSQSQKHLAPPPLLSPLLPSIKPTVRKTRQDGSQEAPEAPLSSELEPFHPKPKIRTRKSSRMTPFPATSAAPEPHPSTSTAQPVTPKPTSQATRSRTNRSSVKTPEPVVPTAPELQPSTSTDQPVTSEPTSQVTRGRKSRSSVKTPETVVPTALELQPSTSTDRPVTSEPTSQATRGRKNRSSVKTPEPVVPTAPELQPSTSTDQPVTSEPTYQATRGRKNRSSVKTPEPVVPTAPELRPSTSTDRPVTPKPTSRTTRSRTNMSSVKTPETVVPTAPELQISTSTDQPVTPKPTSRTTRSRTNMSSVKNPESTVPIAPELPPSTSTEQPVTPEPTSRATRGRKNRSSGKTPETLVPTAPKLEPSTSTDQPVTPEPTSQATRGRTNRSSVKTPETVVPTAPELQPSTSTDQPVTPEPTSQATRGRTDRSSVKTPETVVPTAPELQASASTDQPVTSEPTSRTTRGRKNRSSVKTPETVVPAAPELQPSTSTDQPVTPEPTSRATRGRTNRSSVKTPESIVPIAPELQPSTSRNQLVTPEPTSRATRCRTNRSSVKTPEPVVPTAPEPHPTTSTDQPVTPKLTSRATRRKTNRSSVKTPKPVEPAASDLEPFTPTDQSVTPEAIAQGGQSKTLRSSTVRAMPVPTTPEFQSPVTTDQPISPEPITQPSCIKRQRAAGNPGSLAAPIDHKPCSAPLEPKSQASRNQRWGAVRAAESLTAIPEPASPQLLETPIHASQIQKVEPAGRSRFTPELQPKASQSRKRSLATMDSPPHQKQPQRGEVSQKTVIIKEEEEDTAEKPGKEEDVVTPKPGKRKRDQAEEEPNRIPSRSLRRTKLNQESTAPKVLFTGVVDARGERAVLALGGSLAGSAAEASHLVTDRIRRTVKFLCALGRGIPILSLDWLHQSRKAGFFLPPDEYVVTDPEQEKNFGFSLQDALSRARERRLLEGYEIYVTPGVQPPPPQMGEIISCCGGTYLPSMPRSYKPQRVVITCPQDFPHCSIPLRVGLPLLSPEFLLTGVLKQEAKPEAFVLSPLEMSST
UniProt Q16626: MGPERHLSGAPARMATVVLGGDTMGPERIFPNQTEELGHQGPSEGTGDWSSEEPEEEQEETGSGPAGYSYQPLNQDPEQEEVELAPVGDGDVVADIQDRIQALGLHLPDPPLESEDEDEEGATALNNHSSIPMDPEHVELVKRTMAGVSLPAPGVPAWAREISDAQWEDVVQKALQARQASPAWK
UniProt Q8NI22: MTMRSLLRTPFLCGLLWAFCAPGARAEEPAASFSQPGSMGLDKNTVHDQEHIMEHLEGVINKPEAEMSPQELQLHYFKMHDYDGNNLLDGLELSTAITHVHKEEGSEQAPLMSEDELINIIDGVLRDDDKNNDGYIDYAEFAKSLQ
UniProt Q12866: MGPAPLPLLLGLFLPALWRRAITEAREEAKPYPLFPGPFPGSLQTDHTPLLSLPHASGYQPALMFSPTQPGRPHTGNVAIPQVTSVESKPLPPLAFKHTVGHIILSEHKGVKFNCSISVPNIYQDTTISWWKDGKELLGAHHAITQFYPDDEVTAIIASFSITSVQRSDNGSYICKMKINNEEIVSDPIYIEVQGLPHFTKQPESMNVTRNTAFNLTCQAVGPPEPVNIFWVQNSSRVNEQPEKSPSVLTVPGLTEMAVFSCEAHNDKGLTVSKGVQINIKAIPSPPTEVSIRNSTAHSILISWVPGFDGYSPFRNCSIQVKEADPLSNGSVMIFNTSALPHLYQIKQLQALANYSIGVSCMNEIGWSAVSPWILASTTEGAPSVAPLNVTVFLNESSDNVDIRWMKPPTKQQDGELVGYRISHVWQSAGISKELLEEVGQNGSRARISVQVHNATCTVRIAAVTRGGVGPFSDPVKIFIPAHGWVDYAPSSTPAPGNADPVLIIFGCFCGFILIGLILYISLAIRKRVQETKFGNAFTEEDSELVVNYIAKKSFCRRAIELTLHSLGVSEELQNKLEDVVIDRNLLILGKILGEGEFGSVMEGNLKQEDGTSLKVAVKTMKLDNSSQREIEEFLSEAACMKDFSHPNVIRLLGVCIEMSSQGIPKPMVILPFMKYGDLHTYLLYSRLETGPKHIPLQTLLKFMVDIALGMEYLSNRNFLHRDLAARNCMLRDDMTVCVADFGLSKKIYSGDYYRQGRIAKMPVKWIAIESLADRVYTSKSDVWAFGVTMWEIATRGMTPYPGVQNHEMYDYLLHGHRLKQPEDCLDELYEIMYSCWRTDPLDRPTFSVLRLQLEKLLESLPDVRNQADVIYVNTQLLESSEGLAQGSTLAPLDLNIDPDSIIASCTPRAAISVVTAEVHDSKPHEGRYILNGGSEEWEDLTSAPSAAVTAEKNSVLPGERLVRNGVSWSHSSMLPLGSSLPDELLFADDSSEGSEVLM
UniProt Q9NRN9: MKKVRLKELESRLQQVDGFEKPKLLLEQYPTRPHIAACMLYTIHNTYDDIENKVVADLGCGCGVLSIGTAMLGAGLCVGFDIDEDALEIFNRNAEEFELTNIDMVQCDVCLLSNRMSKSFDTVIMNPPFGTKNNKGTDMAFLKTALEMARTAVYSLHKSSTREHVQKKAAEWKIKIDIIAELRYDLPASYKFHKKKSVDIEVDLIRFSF
UniProt Q6UB28: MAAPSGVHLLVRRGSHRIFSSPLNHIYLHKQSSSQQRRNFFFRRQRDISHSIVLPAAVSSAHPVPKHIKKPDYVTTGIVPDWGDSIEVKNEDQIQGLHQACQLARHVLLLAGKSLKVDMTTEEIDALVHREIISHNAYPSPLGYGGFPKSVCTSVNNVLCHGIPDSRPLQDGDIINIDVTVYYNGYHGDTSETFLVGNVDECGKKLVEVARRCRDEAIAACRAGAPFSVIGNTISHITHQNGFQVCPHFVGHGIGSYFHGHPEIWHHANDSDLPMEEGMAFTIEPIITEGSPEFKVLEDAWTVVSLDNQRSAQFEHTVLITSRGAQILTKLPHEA
UniProt Q9UHV7: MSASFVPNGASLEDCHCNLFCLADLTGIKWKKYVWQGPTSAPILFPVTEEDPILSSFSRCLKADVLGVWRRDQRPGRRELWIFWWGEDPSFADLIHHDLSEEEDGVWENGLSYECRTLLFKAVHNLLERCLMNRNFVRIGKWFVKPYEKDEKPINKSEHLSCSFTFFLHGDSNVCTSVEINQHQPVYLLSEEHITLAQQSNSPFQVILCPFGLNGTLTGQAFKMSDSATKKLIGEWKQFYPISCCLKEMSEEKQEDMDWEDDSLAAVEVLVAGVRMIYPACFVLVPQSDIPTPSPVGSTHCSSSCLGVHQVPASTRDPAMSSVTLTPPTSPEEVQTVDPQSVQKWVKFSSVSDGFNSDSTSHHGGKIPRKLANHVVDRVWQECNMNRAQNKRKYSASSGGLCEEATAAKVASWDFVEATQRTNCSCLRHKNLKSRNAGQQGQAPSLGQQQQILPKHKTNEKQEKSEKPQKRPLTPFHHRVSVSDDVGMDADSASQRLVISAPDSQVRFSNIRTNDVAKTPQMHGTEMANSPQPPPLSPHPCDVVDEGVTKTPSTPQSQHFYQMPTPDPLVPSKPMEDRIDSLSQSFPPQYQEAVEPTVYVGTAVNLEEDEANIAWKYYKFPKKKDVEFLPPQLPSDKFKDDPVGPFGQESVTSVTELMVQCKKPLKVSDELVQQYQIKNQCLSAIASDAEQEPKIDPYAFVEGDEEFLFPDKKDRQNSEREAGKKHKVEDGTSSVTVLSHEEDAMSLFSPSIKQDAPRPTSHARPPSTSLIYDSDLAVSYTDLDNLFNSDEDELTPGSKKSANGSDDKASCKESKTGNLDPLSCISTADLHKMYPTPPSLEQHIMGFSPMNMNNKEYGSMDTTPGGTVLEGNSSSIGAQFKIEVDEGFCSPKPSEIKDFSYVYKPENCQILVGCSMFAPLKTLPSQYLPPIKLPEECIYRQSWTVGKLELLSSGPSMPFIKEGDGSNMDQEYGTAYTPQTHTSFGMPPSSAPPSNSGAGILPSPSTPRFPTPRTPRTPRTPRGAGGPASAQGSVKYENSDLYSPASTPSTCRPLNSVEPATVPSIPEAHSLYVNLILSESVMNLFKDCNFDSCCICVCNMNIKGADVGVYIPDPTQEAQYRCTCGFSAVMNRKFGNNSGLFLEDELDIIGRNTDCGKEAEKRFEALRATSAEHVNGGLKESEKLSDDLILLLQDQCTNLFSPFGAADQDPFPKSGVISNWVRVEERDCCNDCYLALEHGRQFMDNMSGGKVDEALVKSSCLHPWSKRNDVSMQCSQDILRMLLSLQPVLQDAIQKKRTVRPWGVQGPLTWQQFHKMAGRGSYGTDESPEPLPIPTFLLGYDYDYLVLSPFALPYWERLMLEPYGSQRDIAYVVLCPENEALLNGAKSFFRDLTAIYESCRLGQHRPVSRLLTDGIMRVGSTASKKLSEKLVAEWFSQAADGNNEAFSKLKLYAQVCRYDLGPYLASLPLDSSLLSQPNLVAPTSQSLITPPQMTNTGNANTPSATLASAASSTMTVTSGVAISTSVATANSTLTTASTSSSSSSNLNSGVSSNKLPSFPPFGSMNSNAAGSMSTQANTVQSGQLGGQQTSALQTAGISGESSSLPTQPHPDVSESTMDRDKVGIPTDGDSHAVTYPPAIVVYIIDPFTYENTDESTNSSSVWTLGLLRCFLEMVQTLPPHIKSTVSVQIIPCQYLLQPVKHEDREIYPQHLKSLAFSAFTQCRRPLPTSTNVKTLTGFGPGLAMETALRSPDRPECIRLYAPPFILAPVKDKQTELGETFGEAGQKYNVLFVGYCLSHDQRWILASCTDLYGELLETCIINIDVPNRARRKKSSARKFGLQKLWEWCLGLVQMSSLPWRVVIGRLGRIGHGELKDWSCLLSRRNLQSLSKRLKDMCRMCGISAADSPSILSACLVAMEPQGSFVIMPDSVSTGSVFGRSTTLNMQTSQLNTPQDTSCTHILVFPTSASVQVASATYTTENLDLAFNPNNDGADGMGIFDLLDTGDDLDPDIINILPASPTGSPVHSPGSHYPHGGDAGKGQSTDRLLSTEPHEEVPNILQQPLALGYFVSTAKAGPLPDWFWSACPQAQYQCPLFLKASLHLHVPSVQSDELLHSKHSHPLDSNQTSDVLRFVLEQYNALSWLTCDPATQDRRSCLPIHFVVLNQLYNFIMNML

What follows are targets tested with Cc1sc2c(c1C)C(c1ccc(Cl)cc1)=N[C@@H](CC(=O)OC(C)(C)C)c1nnc(C)n1-2 (assay: log2 fold change, soluble protein after heating vs DMSO (PISA); higher = thermal stabilisation; K562 lysate, 10 uM; active = over 0.2 and 3.5 SD of the protein, either way, in both replicates (recomputed)).
Method in brief: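 Dounce homogenisation of K562 pellets in PBS pH 7.4 with 1 mM MgCl2 produced a crude extract, used at 1 mg/mL protein. Exposure to 10 μM compound lasted 30 min, and aliquots were then heated for 3 min across 48°C-58°C, pooled and brought to 0.5% NP-40 at 4°C. The supernatant after 21,000xg for 90 min was quantified by TMTpro 16plex LC-MS/MS with channel sums equalised. Duplicate values are given as log-two fold change in thermal stability relative to solvent controls.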

Target | log2 fold change
MBOAT2 (UniProt Q6ZWT7) | inactive: -0.022
MCUR1 (UniProt Q96AQ8) | inactive: -0.068
MED27 (UniProt Q6P2C8) | inactive: -0.049
MFSD5 isoform 2 (UniProt Q6N075) | inactive: -0.088
MED12 isoform 2 (UniProt Q93074) | inactive: 0.042
MED10 (UniProt Q9BTT4) | inactive: 0.015
MED1 (UniProt Q15648) | inactive: -0.017
MCM6 (UniProt Q14566) | inactive: 0.013
MCCC2 (UniProt Q9HCC0) | inactive: -0.002
MED19 (UniProt A0JLT2) | inactive: -0.009
MDC1 (UniProt Q14676) | inactive: -0.021
MEA1 (UniProt Q16626) | inactive: -0.008
METAP1 (UniProt P53582) | inactive: 0.044
MCFD2 (UniProt Q8NI22) | inactive: 0.008
MEAK7 (UniProt Q6P9B6) | inactive: 0.012
MERTK (UniProt Q12866) | inactive: -0.012
METTL5 (UniProt Q9NRN9) | inactive: -0.014
MEF2C isoform 5 (UniProt Q06413) | inactive: -0.124
MBLAC2 (UniProt Q68D91) | inactive: 0.013
METAP1D (UniProt Q6UB28) | inactive: 0.026
MED13 (UniProt Q9UHV7) | inactive: -0.01
MATR3 (UniProt P43243) | inactive: 0.034
MCAM (UniProt P43121) | inactive: 0.007

Reformatted as a markdown table: part of the list above

| Target | log2 fold change |
| --- | --- |
| MED27 (UniProt Q6P2C8) | inactive: -0.049 |
| MFSD5 isoform 2 (UniProt Q6N075) | inactive: -0.088 |
